Experimental data: patent US10828349B2, “Treatment of microbial infections” (NATIONAL UNIVERSITY OF IRELAND, GALWAY, priority 2011, dated 2020)
Some entries share one result that the patent states for a list of compounds. For at least one compound, name, drawing or mass did not settle the structure.

System: E. coli
Experiment: milk inoculated with E. coli, enzymatic system with Beta-galactosidase
Format: cell-based
Conditions: component of the four-component system in milk inoculated with E. coli

[I-].[K+] [Iodide, potassium iodide]
concentration sufficient to observe antibacterial activity: ≥ 120 mg/L
